Test results as given in article PMC7177284, “A Coil-to-Helix Transition Serves as a Binding Motif for hSNF5 and BAF155 Interaction” (International Journal of Molecular Sciences, 2020).
Results are given in words; binding and its absence hold for the method and conditions named.

Protein sequences, listed by entry. Tags and fused reporters are not part of them. Residues count along the entry.
UniProt Q92922, residues 449-546: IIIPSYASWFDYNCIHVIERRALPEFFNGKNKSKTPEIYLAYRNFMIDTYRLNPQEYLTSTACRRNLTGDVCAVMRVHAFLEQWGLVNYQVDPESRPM

What was measured:
[1] = molecular target: BAF155^SWIRM (SWIRM domain of human BAF155, residues 449–546) (human) (UniProt Q92922); assay: SEC; Superdex 200 16/60, 25 °C, 10 mM HEPES pH 7.0, 100 mM NaCl, 2 mM DTT; hSNF5^171–258 0.2 mM and BAF155^SWIRM 0.3 mM loaded individually or together; both purified
[2] = molecular target: BAF155^SWIRM (SWIRM domain of human BAF155, residues 449–546) (human) (UniProt Q92922); assay: SEC-MALS; Wyatt WTC-030S5 column, 0.5 mL/min, 10 mM HEPES pH 7.0, 100 mM NaCl, 2 mM DTT; hSNF5^171–258 0.2 mM and BAF155^SWIRM 0.3 mM, individually or together; both purified
[3] = molecular target: hSNF5^171–258 (N- and C-terminal elongated hSNF5 RPT1 domain) (human) (UniProt Q12824); assay: SEC; Superdex 200 16/60, 25 °C, 10 mM HEPES pH 7.0, 100 mM NaCl, 2 mM DTT; hSNF5^171–258 0.2 mM and BAF155^SWIRM 0.3 mM loaded individually or together; both purified
[4] = molecular target: hSNF5^171–258 (N- and C-terminal elongated hSNF5 RPT1 domain) (human) (UniProt Q12824); assay: SEC-MALS; Wyatt WTC-030S5 column, 0.5 mL/min, 10 mM HEPES pH 7.0, 100 mM NaCl, 2 mM DTT; hSNF5^171–258 0.2 mM and BAF155^SWIRM 0.3 mM, individually or together; both purified

BAF155^SWIRM (SWIRM domain of human BAF155, residues 449–546) (from UniProt Q92922 449-546) (domain or fragment)
binding [1]: no binding (tested: 0.3 mM)
binding [2]: no binding (tested: 0.3 mM)

B1: hSNF5^171–258 (N- and C-terminal elongated hSNF5 RPT1 domain) (domain or fragment, human, UniProt Q12824 171-258, looked up)
chain: HDPAVIHENASQPEVLVPIRLDMEIDGQKLRDAFTWNMNEKLMTPEMFSEILCDDLDLNPLTFVPAIASAIRQQIESYPTDSILEDQS
notes: 15N- or 13C,15N-labelled for the NMR experiments; modified pET21b vector; also called human SNF5; SNF5/INI1/BAF47; source: E. coli BL21 (DE3), purified (Ni-NTA, TEV cleavage, Superdex 200); not shown: His6, N-terminal, cleaved
binding [3]: no binding (tested: 0.2 mM)
binding [4]: no binding (tested: 0.2 mM)
